Results are given in words; binding and its absence hold for the method and conditions named. Binding seen in cells or lysates may run through a third protein. Some results given as binding are weak or reduced against the parent protein; the word gives no strength.
Columns and labels:
[1] = target: BTZ-GFP (barentsz, GFP-tagged) (UniProt O15234); test: co-IP; pull-down of the GFP-tagged bait from HeLa cell lysate, 150 and 250 mM NaCl; endogenous eIF4A3 and Y14 detected by immunoblot
[2] = target: BTZ-GFP (barentsz, GFP-tagged) (UniProt O15234); test: co-IP; pull-down of the GFP-tagged bait from HeLa cell lysate, 500 mM NaCl; immunoblot

Chains of the proteins cited; added tags and fusions are not shown.
UniProt O15234: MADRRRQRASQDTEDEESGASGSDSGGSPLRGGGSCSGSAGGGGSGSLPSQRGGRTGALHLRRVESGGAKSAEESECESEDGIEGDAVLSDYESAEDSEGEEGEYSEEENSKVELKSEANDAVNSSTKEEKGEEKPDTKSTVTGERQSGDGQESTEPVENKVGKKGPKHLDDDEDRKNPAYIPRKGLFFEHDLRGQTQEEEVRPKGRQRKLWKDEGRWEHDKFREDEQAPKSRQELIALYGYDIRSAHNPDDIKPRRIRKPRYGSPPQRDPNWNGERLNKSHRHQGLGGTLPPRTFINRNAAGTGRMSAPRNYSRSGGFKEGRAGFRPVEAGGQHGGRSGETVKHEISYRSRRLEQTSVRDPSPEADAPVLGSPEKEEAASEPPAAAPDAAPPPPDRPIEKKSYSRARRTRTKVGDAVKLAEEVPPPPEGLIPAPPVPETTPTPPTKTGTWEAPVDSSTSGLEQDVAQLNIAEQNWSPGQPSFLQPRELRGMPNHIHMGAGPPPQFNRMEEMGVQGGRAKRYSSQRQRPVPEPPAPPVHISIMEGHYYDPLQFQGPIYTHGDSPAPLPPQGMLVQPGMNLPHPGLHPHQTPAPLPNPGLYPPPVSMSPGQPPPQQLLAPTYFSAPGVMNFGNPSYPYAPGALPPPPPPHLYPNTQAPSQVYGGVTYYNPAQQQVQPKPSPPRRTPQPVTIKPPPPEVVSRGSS
UniProt P38919: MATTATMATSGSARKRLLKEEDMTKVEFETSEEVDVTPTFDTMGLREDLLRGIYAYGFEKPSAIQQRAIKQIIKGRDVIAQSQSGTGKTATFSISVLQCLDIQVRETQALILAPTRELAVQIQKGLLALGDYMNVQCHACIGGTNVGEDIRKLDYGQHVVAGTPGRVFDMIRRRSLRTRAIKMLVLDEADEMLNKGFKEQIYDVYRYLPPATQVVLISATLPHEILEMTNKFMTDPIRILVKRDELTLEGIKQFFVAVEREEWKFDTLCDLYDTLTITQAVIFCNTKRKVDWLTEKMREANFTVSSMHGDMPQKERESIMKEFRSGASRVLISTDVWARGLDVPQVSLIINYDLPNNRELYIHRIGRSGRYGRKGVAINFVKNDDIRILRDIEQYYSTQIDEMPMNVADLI

binding [1]: binds
binding [2]: no binding (condition: 500 mM NaCl)
Substance: eukaryotic translation initiation factor 4A3 (eIF4A3), endogenous (from UniProt P38919 1-411)
